Data on 108 sequences can be found in PubChem BioAssay AID1347426 (Functional Genomics Laboratory (NCATS/FGL), 2020).

The campaign covered roughly 31,000 sequences. About 1,400 (4.5%) were called active.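 The calls were made as follows: active = median seed-adjusted z-score above 1 or below -1; inactive = the rest.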 This is one part of the list.

This assay in a line: Novel Modifiers of Survival Motor Neuron (SMN) Protein: Gene Identification via Genome-wide siRNA Screen.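 Also: luminescence tracks full-length SMN protein made from the SMN2 reporter.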 Particulars: HEK293T SMN2-luciferase reporter, siRNA knockdown, 72 h; actives lie on both sides. The method, boiled down:
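Genome-wide siRNA screen (10418 genes, 3 siRNAs each, 1 pmol per well) by reverse transfection in HEK293T cells stably carrying an SMN2-luciferase reporter; luminescence after 72 hours, normalized to negative-control siRNA, log10-transformed, MAD-scored.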
On the technique in general: In a reporter assay the amount or activity of a reporter protein is the signal.
Take GCACCAACCUGACCUGUCATT against CD33: the median seed-adjusted z-score was inactive: -0.355.

With CACUGGAUGAAUUAGAUCATT against BUD31, the median seed-adjusted z-score was inactive: 0.0554.

As for GCCCGAGCGGAAUACUCAATT against EDAR, the median seed-adjusted z-score is inactive: 0.137.

GAACAGCUGGGAACCUUCATT against PPP2R1A: the median seed-adjusted z-score is inactive: 0.973.

Turning to GCAAGACCGAAGUAAACUATT against GPX4, the median seed-adjusted z-score is active: -1.18.

Consider GGUGGUAUCAACUUACAUATT against DDX10, for which the median seed-adjusted z-score was inactive: -0.968.

Consider CCAUAUUCCUAUACACGAATT against CPB2, for which the median seed-adjusted z-score is inactive: -0.62.

Take AGCUUAAGCUGGGUGAGAUTT against ARF1: the median seed-adjusted z-score was inactive: -0.371.

For the sequence GAUCCAUACUUGGAUGAUATT against PAIP1, the median seed-adjusted z-score is inactive: -0.0178.

On to UGAUUGCACGAACAGCAAATT against MED21, for which the median seed-adjusted z-score is active: -1.3.

On to CCACUUCUCCACACCUUGATT against NR4A1, for which the median seed-adjusted z-score is inactive: -0.207.

On to GGCCAGGUAUUUCAGGUCATT against KLK3, for which the median seed-adjusted z-score was inactive: 0.0191.

Take GCACCUGAGAGUCUUCUUUTT against SLC8A2: the median seed-adjusted z-score is inactive: 0.

With CGGUACUACCCAAACGUCATT against APOBEC3D, the median seed-adjusted z-score is inactive: -0.0215.

Consider GAAUUGCUCCUAAUGUCAATT against MYB, for which the median seed-adjusted z-score was inactive: 0.307.

As for CAUCCAUGCUGACAACUGUTT against LEPREL1, the median seed-adjusted z-score is inactive: 0.0654.

Regarding CCCUAUCCAUGUUCCAUGUTT against HDAC10, the median seed-adjusted z-score was inactive: -0.165.

With GGAAUGUCAUCUACGAAGATT against ERO1L, the median seed-adjusted z-score is inactive: -0.251.

For the sequence GGUCUUUAGAGAUUCGAGATT against NPHP3, the median seed-adjusted z-score was inactive: 0.239.

On to GCAAACGGCUUAUGGGAUATT against RAD51L1, for which the median seed-adjusted z-score is inactive: 0.

Regarding GACUCAGACAUGCUACAUATT against LRRK1, the median seed-adjusted z-score was inactive: 0.257.

Regarding GGUUUCGUGUGGACCGUAATT against CADM4, the median seed-adjusted z-score was inactive: 0.16.

With GCAUCUUUCUGAGUUCACUTT against SLC22A11, the median seed-adjusted z-score is inactive: 0.

For the sequence GGCUGUCAUCAAUACCGUUTT against TMLHE, the median seed-adjusted z-score is inactive: -0.241.

Take GCACCGACAAGGAUGGAAATT against GRIP2: the median seed-adjusted z-score was inactive: -0.0256.

Turning to GAACAGUGUUUGUCAGCAUTT against ASAH2, the median seed-adjusted z-score is inactive: 0.615.

Take AGGACCAAAUGUCAAUUUATT against IL1RN: the median seed-adjusted z-score was inactive: 0.283.

With GUUUAACCCAGGAAUCACATT against KNG1, the median seed-adjusted z-score was inactive: 0.

Take CCAUAUUCCUCAUGCAUGUTT against FCRL5: the median seed-adjusted z-score is inactive: -0.138.

As to GGAGUUUCCCAUACGAAUUTT against SPG3A, the median seed-adjusted z-score was inactive: 0.203.

With GUUCAUCUCUUGUAAGGAUTT against CABP5, the median seed-adjusted z-score is inactive: 0.372.

For the sequence GGAUUUCACUGUGAUCGAATT against DPYD, the median seed-adjusted z-score was inactive: -0.112.

On to GAGUGUAUGGUGUUACGUATT against USP16, for which the median seed-adjusted z-score was inactive: -0.173.

GGAGAAUUCAAUACCUUAATT against LCTL: the median seed-adjusted z-score is inactive: -0.0821.

With CCGACAGUGUCACCAGUAATT against RAET1E, the median seed-adjusted z-score was inactive: -0.616.

Take CCAGAUUGCUAGUAUCUCATT against TRAK1: the median seed-adjusted z-score was inactive: 0.298.

CUCUCCACCUGAUUACAGATT against TKTL1: the median seed-adjusted z-score was inactive: -0.495.

GGGAUGCUCUAUUCUGGUATT against SEMA4A: the median seed-adjusted z-score is inactive: 0.0377.

For the sequence CCCUCGUAUUUACAACAAATT against CUL5, the median seed-adjusted z-score was inactive: 0.0143.

GCAUGAAUGCUUUACAGUUTT against CUGBP2: the median seed-adjusted z-score is inactive: -0.532.

Consider CAUACAUGUUGCUAACCAATT against PCDH12, for which the median seed-adjusted z-score is inactive: 0.0177.

With CAGCAGCAAGUGUCCCAAATT against CCL2, the median seed-adjusted z-score was inactive: 0.651.

Consider CUGGAAUAAUCAUAAGAAATT against EDN1, for which the median seed-adjusted z-score is inactive: 0.0717.

As to UCUCUCCUAUGGAAACAAATT against GZMH, the median seed-adjusted z-score is inactive: 0.946.

As for GGAACUACGGCGAUAUCUATT against MICA, the median seed-adjusted z-score was inactive: -0.0635.

GCAUAGAACCAGUCAAUGATT against PGBD1: the median seed-adjusted z-score is inactive: 0.925.

In the case of GGACAAGGGAUUAAUAGUATT against ARID1A, the median seed-adjusted z-score was active: -1.14.

Consider GGACAUCGGGAAGAACAUUTT against NOB1, for which the median seed-adjusted z-score is inactive: -0.0844.

Consider CCAAUCUUCUGGACUUUGATT against FTCD, for which the median seed-adjusted z-score was inactive: -0.27.

Turning to CCUAAAUUCUGUCACGGUATT against GLG1, the median seed-adjusted z-score was inactive: 0.308.

For GGAAGUAAUAAGAUUGAAATT against RXFP1, the median seed-adjusted z-score is inactive: 0.314.

For the sequence GCACCAACAUCUACGAGCATT against CDH23, the median seed-adjusted z-score was inactive: -0.918.

With GGAGUAAAGCUGUUGAAGATT against LRRIQ1, the median seed-adjusted z-score was inactive: 0.

Regarding CCUUUUUCUGCUUCACCAATT against TBC1D13, the median seed-adjusted z-score was inactive: 0.33.

In the case of CCACAAUACUUUCGUAUGATT against DCHS2, the median seed-adjusted z-score is inactive: 0.

As to CUCUGGAUCCUGAUCAGUUTT against SLC46A2, the median seed-adjusted z-score was inactive: 0.

For the sequence CUUGCAAAAUGUACACGAATT against AS3MT, the median seed-adjusted z-score was inactive: -0.74.

For the sequence AUCCUGAAGUGAAUCCCUATT against ZNF273, the median seed-adjusted z-score was inactive: 0.0489.

AGAUUGAGGAUUUACAAGATT against CHMP5: the median seed-adjusted z-score was inactive: 0.

In the case of GCACUCCCUCUACACCACATT against SIPA1, the median seed-adjusted z-score is inactive: -0.0872.

Regarding CAUCCCGUCUCAUUAAACATT against ZNF417, the median seed-adjusted z-score was inactive: 0.0205.

On to ACAACUUCAUAUCCAGCUUTT against ISLR2, for which the median seed-adjusted z-score was inactive: 0.263.

With GCCCAACAGUCAUUCAACATT against CHMP5, the median seed-adjusted z-score was inactive: 0.

With CAAUACCCUGAAUUCGAAATT against DSG2, the median seed-adjusted z-score is inactive: -0.285.

As for GGAUAUGCUUGGUCGGGUATT against ATP6V1B2, the median seed-adjusted z-score was inactive: 0.24.

With CACUGUACAUUUUCCGACATT against UBE2D1, the median seed-adjusted z-score is inactive: 0.508.

Consider UGAGUGUUUUCACAUCUUUTT against NR2C2, for which the median seed-adjusted z-score was inactive: -0.498.

Regarding AGAUAGUGACGACAGCCUATT against NRCAM, the median seed-adjusted z-score is inactive: -0.0304.

Turning to GGAUUUCACUGGCAAAGUGTT against WWOX, the median seed-adjusted z-score was inactive: -0.583.

For GGAGAUUCACGAGCUGCGATT against EGFL8, the median seed-adjusted z-score is inactive: 0.365.

As to GAGCGAGAAGAGUUCUAUATT against ATP6V1D, the median seed-adjusted z-score was inactive: 0.594.

Consider UGAUCAAUCGGAUUGAGAATT against STX4, for which the median seed-adjusted z-score was inactive: 0.759.

In the case of CAAUCUUACCAGGAGAUAATT against MOXD1, the median seed-adjusted z-score was inactive: -0.162.

With CAAAUACCGUUAAGCUGGATT against HBA1, the median seed-adjusted z-score was active: -1.03.

For the sequence GGAUUGAACUUUCGAAUUATT against KNG1, the median seed-adjusted z-score is inactive: 0.

For CGAUGUCAGCAUUUCCGUUTT against EPRS, the median seed-adjusted z-score was inactive: -0.391.

As to GCUUGUCACCGUUCGAGCATT against UQCRQ, the median seed-adjusted z-score was inactive: 0.0241.

For CUAUGCUACCCUCUACUUUTT against AP3S2, the median seed-adjusted z-score is inactive: 0.521.

On to CAUAAAGUUAAAUCCCUUATT against KCNS2, for which the median seed-adjusted z-score was inactive: 0.0597.

Consider GCAUUGAAAUUUCCAGCGATT against GABRP, for which the median seed-adjusted z-score is inactive: -0.441.

As to GAUCUUUACGACAACCAGATT against PPP1R7, the median seed-adjusted z-score was inactive: 0.0505.

For the sequence CCCUCGAAUUCGCAUAGAATT against DIS3, the median seed-adjusted z-score was inactive: 0.266.

Regarding GGAUGACAUGUCUAGCAUUTT against NXF1, the median seed-adjusted z-score is active: -4.46.

Take GCAUGCCCAUGACCAUGGUTT against ARHGAP27: the median seed-adjusted z-score is inactive: -0.777.

Take CAUUCACUGAGGCGACAGATT against ABCA9: the median seed-adjusted z-score was inactive: -0.139.

For the sequence GCCCAGAAGUUUAUAGACATT against MYO7B, the median seed-adjusted z-score was inactive: -0.167.

Take CCGGGACAGUGACAUCAUATT against ENDOD1: the median seed-adjusted z-score was inactive: -0.138.

For CCAGGAACAAAUGACGAAATT against ZSWIM2, the median seed-adjusted z-score is inactive: -0.199.

Regarding GGAUCGUGAUUAAGAUCGATT against ZNF777, the median seed-adjusted z-score is inactive: 0.128.

GGAUGUUAGAUGUCUGGUATT against IL12RB2: the median seed-adjusted z-score is inactive: 0.368.

Consider GGAACAACGUGGACCCAUATT against CAPN1, for which the median seed-adjusted z-score is inactive: 0.282.

As for GAGCGACUAAGAUAGAUCATT against POLQ, the median seed-adjusted z-score is inactive: 0.203.

For GGUUGGGAGCUGUAUCACATT against DMGDH, the median seed-adjusted z-score is inactive: 0.0323.

As for GGUGUUACAGGCGAAAAUATT against POGZ, the median seed-adjusted z-score was inactive: -0.376.

For the sequence GGGUUUUGCUGGACACAGUTT against GNB2, the median seed-adjusted z-score was inactive: 0.561.

For the sequence CAUCUCGACUUAUUGGAAATT against WEE1, the median seed-adjusted z-score is active: -4.05.

With GCUUUAUCCUCAACGUGCUTT against GGT5, the median seed-adjusted z-score was inactive: 0.307.

GGGCGAGACUGUAAAGCGATT against PCBP4: the median seed-adjusted z-score is inactive: -0.269.

As to GCAUAAUGAAUACCCUAGATT against SCN9A, the median seed-adjusted z-score was inactive: -0.581.

Take GGUUCGUGAAGUUCGUAAATT against UTP3: the median seed-adjusted z-score was active: -1.08.

As to CUGAGAAAAUUAGUCCGAATT against SLC39A6, the median seed-adjusted z-score was inactive: -0.262.

Take UGCCUACACUACUUAAGUATT against TXNDC17: the median seed-adjusted z-score is inactive: 0.245.

For GUAUAGUGAUUGUAGCUGUTT against NDUFC1, the median seed-adjusted z-score was inactive: 0.

Take GGCUGCGGAUGAUUUCAGATT against KRT31: the median seed-adjusted z-score is inactive: 0.604.

For GUGACCUUGUCAUUCCGUATT against RGS5, the median seed-adjusted z-score is inactive: 0.

For the sequence CCACGAGUGGAUGAAAUCATT against NAT9, the median seed-adjusted z-score is inactive: -0.657.

Turning to AGAACAACCUGGACUAUAUTT against PPP5C, the median seed-adjusted z-score was inactive: 0.473.

Turning to CUAUGGACGUCUCCAAUCATT against GSTM4, the median seed-adjusted z-score is inactive: -0.204.
